Legend:
[1] = electrodialysis separation of Ge-132 from saccharide solutions (Examples 1-6, Table 5)
[2] = electrodialysis of isomerization mixture after glucose isomerization into fructose (Example 7, Table 6); conditions: Example 7, isomerization mixture diluted ten-fold
[3] = Example 5, lactulose + Ge-132, 15 min
[4] = Example 5, lactulose + Ge-132, 30 min
[5] = Example 6, lactose/lactulose + Ge-132, 15 min
[6] = Example 6, lactose/lactulose + Ge-132, 30 min
[7] = Example 1, glucose + Ge-132, 15 min
[8] = Example 1, glucose + Ge-132, 30 min
[9] = Example 2, fructose + Ge-132, 15 min
[10] = Example 2, fructose + Ge-132, 30 min
[11] = Example 3, glucose/fructose + Ge-132, 15 min
[12] = Example 3, glucose/fructose + Ge-132, 30 min
[13] = Example 4, lactose + Ge-132, 15 min
[14] = Example 4, lactose + Ge-132, 30 min

## OC[C@H]1O[C@@H](O[C@@H]2[C@@H](CO)OC(O)(CO)[C@H]2O)[C@H](O)[C@@H](O)[C@H]1O (mixture of isomers) [Lactulose, lactulose]
[1]; [3]
  Concentration after desalting C2: 9.575 mM
  Reduction C1-C2: 0.235 mM
  Reduction rate: 2.40%
[1]; [4]
  Concentration after desalting C2: 9.635 mM
  Reduction C1-C2: 0.715 mM
  Reduction rate: 1.78%
[1]; [5]
  Concentration after desalting C2: 9.61 mM
  Reduction C1-C2: 0.27 mM
  Reduction rate: 2.73%
[1]; [6]
  Concentration after desalting C2: 9.72 mM
  Reduction C1-C2: 0.16 mM
  Reduction rate: 1.62%

## O=C(O)C[CH2][Ge](=[O])[O][Ge](=[O])[CH2]CC(=O)O [Compound 1, 2-carboxyethylgermanium sesquioxide]
[1]; [7]
  Concentration after desalting C2: 0.963 mM
  Reduction C1-C2: 3.187 mM
  Reduction rate: 76.80%
[1]; [8]
  Concentration after desalting C2: 0.1615 mM
  Reduction C1-C2: 3.9885 mM
  Reduction rate: 96.11%
[1]; [9]
  Concentration after desalting C2: 0.68 mM
  Reduction C1-C2: 3.49 mM
  Reduction rate: 83.69%
[1]; [10]
  Concentration after desalting C2: 0.1105 mM
  Reduction C1-C2: 4.0595 mM
  Reduction rate: 97.35%
[1]; [11]
  Concentration after desalting C2: 1.36 mM
  Reduction C1-C2: 2.67 mM
  Reduction rate: 66.25%
[1]; [12]
  Concentration after desalting C2: 0.39 mM
  Reduction C1-C2: 3.64 mM
  Reduction rate: 90.35%
[1]; [13]
  Concentration after desalting C2: 1.15 mM
  Reduction C1-C2: 3.01 mM
  Reduction rate: 72.36%
[1]; [14]
  Concentration after desalting C2: 0.167 mM
  Reduction C1-C2: 3.993 mM
  Reduction rate: 95.99%
[1]; [3]
  Concentration after desalting C2: 0.914 mM
  Reduction C1-C2: 3.286 mM
  Reduction rate: 78.24%
[1]; [4]
  Concentration after desalting C2: 0.191 mM
  Reduction C1-C2: 4.009 mM
  Reduction rate: 95.45%
[1]; [5]
  Concentration after desalting C2: 1.23 mM
  Reduction C1-C2: 2.95 mM
  Reduction rate: 70.57%
[1]; [6]
  Concentration after desalting C2: 0.326 mM
  Reduction C1-C2: 3.854 mM
  Reduction rate: 92.20%
[2]; 15 min
  Concentration after desalting C2: 1.38 mM
  Reduction C1-C2: 6.12 mM
  Reduction rate: 81.56%
[2]; 30 min
  Concentration after desalting C2: 0.36 mM
  Reduction C1-C2: 7.14 mM
  Reduction rate: 96.25%

## O=C(CO)[C@@H](O)[C@H](O)[C@H](O)CO [Fructose, fructose]
[1]; [9]
  Concentration after desalting C2: 9.13 mM
  Reduction C1-C2: 1.17 mM
  Reduction rate: 11.36%
[1]; [10]
  Concentration after desalting C2: 9.1 mM
  Reduction C1-C2: 1.2 mM
  Reduction rate: 11.65%
[1]; [11]
  Concentration after desalting C2: 9.105 mM
  Reduction C1-C2: 0.605 mM
  Reduction rate: 6.23%
[1]; [12]
  Concentration after desalting C2: 9.11 mM
  Reduction C1-C2: 0.61 mM
  Reduction rate: 6.18%
[2]; 15 min
  Concentration after desalting C2: 13.26 mM
  Reduction C1-C2: 1.54 mM
  Reduction rate: 10.41%
[2]; 30 min
  Concentration after desalting C2: 13.22 mM
  Reduction C1-C2: 1.58 mM
  Reduction rate: 10.67%

## O=C[C@H](O)[C@@H](O)[C@H](O)[C@H](O)CO [Glucose, glucose]
[1]; [7]
  Concentration after desalting C2: 9.915 mM
  Reduction C1-C2: 0.185 mM
  Reduction rate: 1.83%
[1]; [8]
  Concentration after desalting C2: 9.095 mM
  Reduction C1-C2: 0.195 mM
  Reduction rate: 1.93%
[1]; [11]
  Concentration after desalting C2: 9.65 mM
  Reduction C1-C2: 0.45 mM
  Reduction rate: 4.46%
[1]; [12]
  Concentration after desalting C2: 9.7 mM
  Reduction C1-C2: 0.405 mM
  Reduction rate: 4.01%
[2]; 15 min
  Concentration after desalting C2: 0.154 mM
  Reduction C1-C2: 0.011 mM
  Reduction rate: 7.14%
[2]; 30 min
  Concentration after desalting C2: 0.154 mM
  Reduction C1-C2: 0.011 mM
  Reduction rate: 6.67%

## OC[C@H]1O[C@@H](O[C@H]2[C@H](O)[C@@H](O)C(O)O[C@@H]2CO)[C@H](O)[C@@H](O)[C@H]1O (stereo partly shown) [Lactose, lactose]
[1]; [13]
  Concentration after desalting C2: 9.865 mM
  Reduction C1-C2: 0.075 mM
  Reduction rate: 0.75%
[1]; [14]
  Concentration after desalting C2: 9.925 mM
  Reduction C1-C2: 0.015 mM
  Reduction rate: 0.15%
[1]; [5]
  Concentration after desalting C2: 9.71 mM
  Reduction C1-C2: 0.08 mM
[1]; [6]
  Concentration after desalting C2: 9.585 mM
  Reduction C1-C2: 0.205 mM
